From US10501414B2, “Indole analogs as 5-oxo-ETE receptor antagonists and method of use thereof” (THE ROYAL INSTITUTION FOR THE ADVANCEMENT OF …, priority 2015, dated 2019)
“And” between values parts separate entries of the source, which are not always exact repeats. Equal values may be shown once. For some assays here: At least one compound was matched to its structure with a doubt left. Some of these results come from one statement about several compounds together.

Protein sequences, listed by entry. Tags and fused reporters are not part of them. Lines headed by an entry give the natural chain unless they say otherwise; changes in a name come on top.
UniProt Q8TDS5: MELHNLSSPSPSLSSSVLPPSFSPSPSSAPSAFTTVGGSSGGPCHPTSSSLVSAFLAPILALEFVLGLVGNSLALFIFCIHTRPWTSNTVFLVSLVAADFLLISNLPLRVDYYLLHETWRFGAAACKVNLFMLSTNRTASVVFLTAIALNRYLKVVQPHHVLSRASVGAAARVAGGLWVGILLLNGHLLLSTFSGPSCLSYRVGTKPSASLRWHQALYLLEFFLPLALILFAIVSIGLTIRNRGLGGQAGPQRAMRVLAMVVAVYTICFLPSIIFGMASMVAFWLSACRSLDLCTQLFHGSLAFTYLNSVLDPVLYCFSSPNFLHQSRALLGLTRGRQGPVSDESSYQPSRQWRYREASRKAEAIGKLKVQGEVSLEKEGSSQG

Tests used:
[1] = Antagonist concentrations in blood (plasma) following oral administration; assay type: in vivo; conditions: cynomolgus monkeys, oral gavage 30 mg/kg
Protocol: Measurement of Antagonist Concentrations in Blood Following Oral Administration
Antagonists dissolved in ethanol (5 to 75 mg/ml) and added to 20 mM NaHCO3 pH 8.0. The resulting suspension (7 to 13 ml containing 10% ethanol) was administered by gavage (between 1 and 30 mg/kg) to cynomolgous monkeys (3 to 4 kg body weight). After different times (between 0.5 and 24 h as well as just prior to administration of antagonist) blood samples (1-2 ml) were taken and centrifuged to obtain plasma, which was frozen and transported to the laboratory as soon as the experiment was complete. […] The extracts were analyzed by reversed-phase HPLC combined with automated precolumn extraction (Powell, W. S., Anal. Biochem., 1987. 164: p. 117-131). […] The amounts of antagonists were determined on the basis of UV absorbance by comparing the peak area for the antagonist in question with that for the corresponding internal standard and correcting for any difference in extinction coefficient.
To examine the PK profiles of compounds V197 and V230 these compounds were administered to cynomolgus monkeys by oral gavage at a dose of 30 mg/kg. Plasma levels were measured following solid-phase extraction by reversed-phase high performance liquid chromatography (HPLC) after 0.5, 1, 2, 4, 8, 18, and 24 h using appropriate internal standards.

OXE receptor = biological target: T1, OXE receptor (Homo sapiens, UniProt Q8TDS5); experiment: Calcium mobilization in human granulocytes (inhibition of 5-oxo-ETE-induced calcium mobilization); assay type: cell-based
T1 construct: Human granulocytes (≥95% neutrophils) are prepared from whole blood; endogenous in cells; host or cells: human granulocytes (≥95% neutrophils) from whole blood
Protocol: Evaluation of Antagonist Activity: Calcium Mobilization in Human Granulocytes
Human granulocytes (≥95% neutrophils) are prepared from whole blood using Dextran 500 to remove red blood cells, followed by centrifugation over Ficoll-Paque to remove mononuclear cells and hypotonic lysis of any remaining red blood cells. After centrifugation the granulocytes are suspended in Ca^++/Mg^++-free phosphate-buffered saline (PBS^−). Granulocytes (10^7 cells/ml) are incubated with the acetoxymethyl ester of indo-1 (1 μM) for 30 min, followed by washing twice with PBS^− and resuspension in the same medium to obtain a final cell concentration of 3.22×10^6 cells/ml. Five minutes prior to commencing data acquisition, Ca^++ and Mg^++ are added to give final concentrations of 1.8 and 1 mM, respectively. Calcium measurements are performed at 37° C. using a spectrofluorometer equipped with a temperature-controlled cuvette holder and a magnetic stirrer. The excitation and emission wavelengths are 331 nm and 410 nm, respectively. Following stabilization of the baseline, fluorescence is measured for 1 min, prior to the addition of either vehicle or various concentrations of a potential 5-oxo-ETE antagonist. Two min later, 5-oxo-ETE (10 nM) is added, followed 1 min later by digitonin (final concentration 0.1%). Data acquisition is terminated after a further 0.5 min. Fmax is determined from fluorescence measurements after the addition of digitonin, whereas Fmin is determined after determination of autofluorescence as described in the literature. A dissociation constant of 250 nM for the indo-1/Ca^++ complex is used to calculate [Ca^++]i. The % inhibition of 5-oxo-ETE-induced calcium mobilization by the antagonist is calculated as follows: Inhibition (%)=(1−(Caant/Ca^++veh))×100 where Caant is the increase in cytosolic calcium levels induced by 5-oxo-ETE (10 nM) following the addition of a potential antagonist, whereas Caveh is the response induced by 5-oxo-ETE following addition of vehicle alone.

Structure (SMILES)	time by which high levels in blood were reached [1] [min]	antagonist activity / potency in words (OXE receptor)
CCCCCCc1c(C(=O)C[C@H](C)CC(=O)O)c2cc(Cl)ccc2n1C [Compound V230]	≤ 30	
CC(CC(=O)O)CC(=O)c1c(CCCCc2ccccc2)n(C)c2ccc(Cl)cc12 (racemic) [Compound 13, methyl 5-(5-chloro-1-methyl-2-(4-phenylbutyl)-1H-indol-3-yl)-3-methyl-5-oxopentanoic acid]		acceptable potencies
CC(CC(=O)O)CC(=O)c1c(CCCCCCc2ccccc2)n(C)c2ccc(Cl)cc12 (racemic) [Compound 15, 5-(5-chloro-1-methyl-2-(6-phenylhexyl)-1H-indol-3-yl)-3-methyl-5-oxopentanoic acid]		acceptable potencies
CC(C)CCCCc1c(C(=O)CC(C)CC(=O)O)c2cc(Cl)ccc2n1C (centres unmarked) [Compound V197]	≤ 30	
C[C@H](CC(=O)O)CC(=O)c1c(C(O)CCCCCc2cccc(Cl)c2)n(C)c2ccc(Cl)cc12 (some centres unmarked) [Compound 50M]		potent OXE antagonistic activity and 5-oxo-ETE-induced calcium mobilization inhibitors
